Test results: US20060223790A1, “Modulation of Microglial by Nicotinic Medications” (University of South Florida, priority 2004, published 2006)
For at least one compound, name, drawing or mass did not settle the structure.

Chains of the proteins cited; added tags and fusions are not shown. Residues count along the entry.
UniProt P36544, 23-502: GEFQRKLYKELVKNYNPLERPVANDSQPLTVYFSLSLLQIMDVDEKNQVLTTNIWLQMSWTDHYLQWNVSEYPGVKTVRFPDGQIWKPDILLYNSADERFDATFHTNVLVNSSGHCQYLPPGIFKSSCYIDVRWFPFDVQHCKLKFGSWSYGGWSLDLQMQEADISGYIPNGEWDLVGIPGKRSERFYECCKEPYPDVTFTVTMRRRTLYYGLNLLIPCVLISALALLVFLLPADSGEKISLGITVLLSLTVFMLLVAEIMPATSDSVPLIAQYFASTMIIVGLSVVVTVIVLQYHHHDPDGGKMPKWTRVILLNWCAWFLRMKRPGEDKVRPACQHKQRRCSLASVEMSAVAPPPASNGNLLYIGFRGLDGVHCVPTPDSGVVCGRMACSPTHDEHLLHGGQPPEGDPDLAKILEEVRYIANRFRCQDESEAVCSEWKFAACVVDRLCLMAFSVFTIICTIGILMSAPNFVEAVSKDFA

Experiments:
microglia = conditions: cited from earlier work
human α7 nAChRs = target: T1, human α7 nAChRs (Homo sapiens, UniProt P36544); conditions: cited from earlier work
T1 construct: host or cells: oocytes

[1] = tested on: primary cultured microglial cells; assay type: cell-based, mouse
[2] = tested on: primary cultured microglial cells; assay type: cell-based, mouse; remark: listed apart in the source
nAChR receptors = conditions: cited from earlier work
APP transgenic mice = conditions: cited from earlier work

CC(=O)OCC[N+](C)(C)C [acetylcholine]
microglial activation induced by bacterial endotoxin (LPS) (microglia): reduced
LPS-induced TNF-α release (microglia; murine derived microglia): inhibit

COc1ccc2c3c1O[C@H]1C[C@@H](O)C=C[C@@]31CCN(C)C2 [galantamine]
concentration window potentiating agonist responses (human α7 nAChRs): 0.1-1.0 gM
HIV-1 gp120/IFN-Υ-induced NO release [1]: slight reduction
HIV-1 gp120/IFN-Υ-induced TNF-α production [2]: slight reduction
concentrations that result in nAChR inhibition (nAChR receptors): > 10 µM
concentrations that up-regulate agonist responses of nAChR receptors (nAChR receptors): 0.1 to 1 µM

COC[C@H]1OC(=O)c2coc3c2[C@@]1(C)C1=C(C3=O)[C@@H]2CCC(=O)[C@@]2(C)C[C@H]1OC(C)=O [wortmannin]
Aβ deposition (APP transgenic mice): reduced
